Reference: patent US20220282325A1, “METHYLATION ASSAYS AND USES THEREOF” (The General Hospital Corporation, priority 2019, published 2022)
For at least one compound, name, drawing or mass did not settle the structure.

Tested on: HL-60 cells
Test: XRBS DNA methylation profiling of decitabine-treated cells
Assay type: cell-based, human
Conditions: HL-60 (FIG. 16G also OCI-AML3), 300 nM decitabine, 100 kb windows
Procedure: In order to detect differential methylation across an isogenic system, cell lines were treated with 300 nM decitabine, which inhibits DNA methyltransferase enzymes through covalent entrapment on DNA (FIGS. 22A and 22B). HL-60 and OCI-AML3 were treated, as these had intermediate global methylation levels among the four cell lines examined, and profiled DNA methylation using expanded representation bisulfite sequencing (XRBS) (FIG. 22C).
For expanded representation bisulfite sequencing (XRBS) profiles, HL-60 and OCI-AML3 cells were treated with 300 nM decitabine in 6 well plates. Cells were harvested after 5 days and gDNA was extracted using Qiagen DNA Mini Blood Kit (51104). 10 ng of gDNA were used for each library preparation.
Before alignment, primer dimers were filtered using Cutadapt version 2.7 and the following parameters:--discard -a GCTCTTCCGATCT. Short read pairs were trimmed using TrimGalore version 0.6.5 and the following parameters: --paired --illumina --nextseq 20. Trimmed sequencing reads were then aligned to an in-silico bisulfate-converted reference genome (hg38 and mm10) using methylCtools version 1.0.0 and bwa mem version 0.7.17. […] Putative PCR duplicates were removed by considering the outer mapping position of both paired-end reads, as well as the random hexamer sequence that was trimmed prior to alignment and functioned as a unique molecular identifier (UMI). […]

Nc1ncn([C@H]2C[C@H](O)[C@@H](CO)O2)c(=O)n1 [decitabine]
methylation reduction in Hi-C compartment A versus B: affects compartment A and B equally
